Source: patent US11001557B2 (priority 2017, dated 2021)
Some entries share one result that the patent states for a list of compounds. At least one structure is not confirmed: it was looked up by name or label, or the drawing left a doubt.

Tested on: SFTSV
Format: cell-based, severe fever with thrombocytopenia syndrome virus (SFTSV)
Settings: 10 µM

Structure (SMILES): CCCCN(C)Cc1cc(Nc2ccnc3cc(I)ccc23)ccc1O [Compound 12, 4-(7-iodoquinolin-4-ylamino)-2-butylmethylaminomethylphenol]
- activity in the screening test (SFTSV proliferation, percent of control, FIG. 5): particularly excellent activity

Structure (SMILES): CCCCCN(C)Cc1cc(Nc2ccnc3cc(I)ccc23)ccc1O [Compound 13, 4-(7-iodoquinolin-4-ylamino)-2-methylpentylaminomethylphenol]
- activity in the screening test (SFTSV proliferation, percent of control, FIG. 5): particularly excellent activity

Structure (SMILES): CCCCCCN(C)Cc1cc(Nc2ccnc3cc(I)ccc23)ccc1O [Compound 14, 4-(7-iodoquinolin-4-ylamino)-2-hexylmethylaminomethylphenol]
- activity in the screening test (SFTSV proliferation, percent of control, FIG. 5): particularly excellent activity
